Drawing on PMC8933699, this text covers binding for 1 substance.

Chains of the proteins cited; added tags and fusions are not shown.
UniProt Q8TB45: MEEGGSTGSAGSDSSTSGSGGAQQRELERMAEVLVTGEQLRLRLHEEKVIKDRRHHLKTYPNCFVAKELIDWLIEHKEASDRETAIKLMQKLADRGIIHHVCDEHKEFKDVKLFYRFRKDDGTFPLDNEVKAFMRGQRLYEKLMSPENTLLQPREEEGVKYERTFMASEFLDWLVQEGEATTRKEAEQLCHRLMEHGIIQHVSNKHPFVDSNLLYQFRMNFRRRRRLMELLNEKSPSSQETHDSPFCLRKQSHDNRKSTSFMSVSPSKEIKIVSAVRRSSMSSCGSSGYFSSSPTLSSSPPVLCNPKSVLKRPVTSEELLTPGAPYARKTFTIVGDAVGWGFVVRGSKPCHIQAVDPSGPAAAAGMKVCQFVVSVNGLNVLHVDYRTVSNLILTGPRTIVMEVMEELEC
UniProt Q93009: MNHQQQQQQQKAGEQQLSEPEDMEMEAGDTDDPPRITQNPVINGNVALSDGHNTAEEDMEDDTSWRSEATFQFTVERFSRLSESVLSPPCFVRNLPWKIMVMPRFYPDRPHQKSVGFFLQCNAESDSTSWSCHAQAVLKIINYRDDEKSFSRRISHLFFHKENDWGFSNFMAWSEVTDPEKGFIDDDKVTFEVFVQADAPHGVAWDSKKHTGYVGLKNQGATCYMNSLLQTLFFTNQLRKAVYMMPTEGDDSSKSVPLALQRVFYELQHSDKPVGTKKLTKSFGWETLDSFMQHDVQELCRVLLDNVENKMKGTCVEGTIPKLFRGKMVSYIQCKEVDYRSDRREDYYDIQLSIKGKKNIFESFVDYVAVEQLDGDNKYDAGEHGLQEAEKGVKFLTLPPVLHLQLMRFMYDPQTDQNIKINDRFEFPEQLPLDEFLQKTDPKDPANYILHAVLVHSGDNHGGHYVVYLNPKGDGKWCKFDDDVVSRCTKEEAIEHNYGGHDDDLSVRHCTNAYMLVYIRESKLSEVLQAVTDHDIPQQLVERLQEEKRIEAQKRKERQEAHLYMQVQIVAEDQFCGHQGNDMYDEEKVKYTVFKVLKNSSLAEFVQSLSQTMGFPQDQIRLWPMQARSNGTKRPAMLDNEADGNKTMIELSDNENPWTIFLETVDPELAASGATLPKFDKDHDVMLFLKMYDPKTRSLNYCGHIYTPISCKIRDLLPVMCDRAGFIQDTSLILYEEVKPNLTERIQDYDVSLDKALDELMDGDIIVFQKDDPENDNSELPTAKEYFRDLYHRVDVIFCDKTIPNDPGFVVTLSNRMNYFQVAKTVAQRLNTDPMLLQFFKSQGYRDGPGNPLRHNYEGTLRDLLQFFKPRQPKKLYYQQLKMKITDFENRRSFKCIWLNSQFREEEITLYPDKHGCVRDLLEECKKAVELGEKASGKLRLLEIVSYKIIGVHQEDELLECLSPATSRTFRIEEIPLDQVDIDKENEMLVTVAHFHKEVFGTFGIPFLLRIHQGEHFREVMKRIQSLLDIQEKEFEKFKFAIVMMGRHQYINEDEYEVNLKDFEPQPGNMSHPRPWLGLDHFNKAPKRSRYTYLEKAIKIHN

This assay addresses FLAG-tagged WT DEPTOR (Disheveled, Egl-10, and Pleckstrin domain-containing mechanistic target of rapamycin-interacting protein) (human) (UniProt Q8TB45). The assay can be described thus: affinity purification with mass spectrometry; tagged DEPTOR immunoprecipitated from MM cells after 4 h with MG-132 alone or drug 3g (1 uM) + MG-132; IgG as control for nonspecific binders; in-solution digestion, label-free LC-MS/MS.

These are yes or no findings as the source states them, for the method shown. Binding seen in cells or lysates may run through a third protein. Here binding means that the protein was enriched with, or labelled near, the bait; the list need not be complete.

“ubiquitin-specific protease 7 (USP-7) deubiquitinase (from UniProt Q93009 1-1102) (enzyme)”: the binding result was “binds”.
